Measured values from patent publication US20210299079A1, “MONOMETHYL FUMARATE-CARRIER CONJUGATES AND METHODS OF THEIR USE” (Flagship Pioneering Innovations V, Inc., priority 2018, published 2021).
Counter-ions that a name gives are not always drawn. At least one structure is not confirmed: it was looked up by name or label, or the drawing left a doubt.

What was measured:
[1] = tested on: experimental autoimmune encephalomyelitis (EAE); assay: In Vivo EAE Model of Multiple Sclerosis; set-up: species or system C57BL/6J mice; conditions: Study 2, oral, amount approximately equimolar to 100 mg/kg DMF, 28 days
Protocol: For experimental autoimmune encephalomyelitis (EAE) study, 8- to 11-week-old C57BL/6J mice were anesthetized and subcutaneously injected with […] and […]. Pertussis toxin (200 ng/mouse) was applied i.p. on days 0. Daily clinical evaluation was performed via a 5-point scale, and the clinical progression was observed over 28 days (FIG. 2A). […] At the end of the study, flow cytometry analysis was performed on the spleen (n=8 per group). […] Statistical analysis was performed with GraphPad Prism (GraphPad Software). Unpaired t test was used to assess significance between the control (Vehicle) and each treatment group. For experimental autoimmune encephalomyelitis (EAE) studies, 8- to 11-week old C57BL/6J mice were anesthetized and subcutaneously injected with […] and […]. Pertussis toxin (200 ng/mouse) was applied intraperitoneally on day 0. Daily clinical evaluation as performed using a 5-point scale and the clinical progression was observed over 28 days (FIGS. 2C and 2D).

[2] = Gastrointestinal (GI) Exposure to Propionate (Study 1); type: in vivo, CD-1 mice; conditions: mouse, single oral dose: Propionate-d3 62 mg/kg, Compound 3-d12 110 mg/kg, Compound 6-d9 91 mg/kg
Protocol: (§1) In order to measure propionate concentrations along the GI track, CD-1 mice were orally administered a single dose of deuterated sodium propionate, Compound 3 comprising deuterated propionate, or Compound 6 comprising deuterated propionate (Propionate-d3, Compound 3-d12, and Compound 6-d9, respectively; suspension, 1% (w/v) methyl cellulose in deionized water). The amounts of compound dosed were normalized to provide approximately equimolar amounts of […] (Propionate-d3 at 62 mg/kg, Compound 3-d12 at 110 mg/kg, and Compound 6-d9 at 91 mg/kg). […] Blood samples were collected in K2EDTA tubes and stored on wet ice no more than 30 min and then further processed to plasma. GI samples were placed into separate labeled, pre-weighted collection tubes and frozen before analysis. Brain samples were homogenized prior to analysis. Samples were subsequently worked up and analyzed by LC-MS/MS for deuterated propionate concentration. Propionate concentrations versus time for different tissues are depicted in FIGS. 4A-4H and 5A-5C.

[3] = Gastrointestinal (GI) Exposure to Monomethylfumarate (MMF) (Study 2); type: in vivo, CD-1 mice; conditions: mouse, samples of Study 1, single oral dose
Protocol: as §1
Samples from Example 6, Study 1 were also analyzed by LC-MS/MS for monomethylfumarate concentrations. MMF concentrations versus time for different tissues are depicted in FIGS. 6A-6F.

## CCC(=O)O[C@H]1[C@H](OC(=O)/C=C/C(=O)OC)OC[C@@H](OC(=O)CC)[C@H]1OC(=O)CC [Compound 6, Methyl ((2S,3R,4R,5R)-3,4,5-tris(propionyloxy)tetrahydro-2H-pyran-2-yl) fumarate]
[1]
  EAE score (5-point scale) compared to control (vehicle only): lower EAE scores

## [2H]C([2H])([2H])CC(=O)OCC1OC(OC(=O)C=CC(=O)OC)C(OC(=O)CC([2H])([2H])[2H])C(OC(=O)CC([2H])([2H])[2H])C1OC(=O)CC([2H])([2H])[2H] (centres unmarked) [Compound 3-d12]
[2]; Brain
  Propionate-d3 Cmax: 1.02 nmol/g
[2]; Cecum
  Propionate-d3 Cmax: 1660 nmol/g
[2]; Distal Colon
  Propionate-d3 Cmax: 660 nmol/g
[2]; Distal Intestine
  Propionate-d3 Cmax: 2690 nmol/g
[2]; Proximal Colon
  Propionate-d3 Cmax: 995 nmol/g
[2]; Proximal Intestine
  Propionate-d3 Cmax: 3370 nmol/g
[2]; Stomach
  Propionate-d3 Cmax: 1970 nmol/g
[3]; Cecum
  MMF Cmax: 112 nmol/g
[3]; Distal Colon
  MMF Cmax: 157 nmol/g
[3]; Distal Intestine
  MMF Cmax: 142 nmol/g
[3]; Proximal Colon
  MMF Cmax: 154 nmol/g
[3]; Proximal Intestine
  MMF Cmax: 76.1 nmol/g
[3]; Stomach
  MMF Cmax: 1170 nmol/g
